From article PMC3472068, “Roles of the different components of magnesium chelatase in abscisic acid signal transduction” (Plant Molecular Biology, 2012)
No constants are given. Whether binding was seen depends on the method and setting. In cells and extracts the contact can be indirect. Some binding calls cover weakened binding; strength is not graded here.

The chains behind the UniProt entries cited, without tags or fusion partners.
UniProt Q9SJE1: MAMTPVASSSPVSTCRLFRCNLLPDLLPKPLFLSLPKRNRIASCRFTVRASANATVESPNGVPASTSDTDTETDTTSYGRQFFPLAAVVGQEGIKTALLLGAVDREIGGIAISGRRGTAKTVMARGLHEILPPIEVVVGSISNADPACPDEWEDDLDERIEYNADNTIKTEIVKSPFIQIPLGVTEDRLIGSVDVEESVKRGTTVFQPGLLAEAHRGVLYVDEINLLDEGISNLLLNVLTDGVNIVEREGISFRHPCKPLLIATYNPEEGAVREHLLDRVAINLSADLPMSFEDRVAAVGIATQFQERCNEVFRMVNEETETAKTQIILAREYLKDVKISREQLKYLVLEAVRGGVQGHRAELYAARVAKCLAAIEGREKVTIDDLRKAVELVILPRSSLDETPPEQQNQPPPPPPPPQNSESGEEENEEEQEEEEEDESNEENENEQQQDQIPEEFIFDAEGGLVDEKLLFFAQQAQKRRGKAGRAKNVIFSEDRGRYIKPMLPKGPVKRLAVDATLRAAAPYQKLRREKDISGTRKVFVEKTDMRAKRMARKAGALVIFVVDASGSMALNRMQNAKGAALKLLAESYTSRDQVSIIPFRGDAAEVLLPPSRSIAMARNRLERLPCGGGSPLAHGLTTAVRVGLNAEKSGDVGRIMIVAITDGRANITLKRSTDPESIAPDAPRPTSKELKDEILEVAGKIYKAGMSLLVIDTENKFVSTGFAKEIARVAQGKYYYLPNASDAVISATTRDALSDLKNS

T1: full length CHLI1 (I subunit of Mg-chelatase) linked to the Gal4 activation domain (Arabidopsis thaliana) (UniProt P16127)
T1 sequence: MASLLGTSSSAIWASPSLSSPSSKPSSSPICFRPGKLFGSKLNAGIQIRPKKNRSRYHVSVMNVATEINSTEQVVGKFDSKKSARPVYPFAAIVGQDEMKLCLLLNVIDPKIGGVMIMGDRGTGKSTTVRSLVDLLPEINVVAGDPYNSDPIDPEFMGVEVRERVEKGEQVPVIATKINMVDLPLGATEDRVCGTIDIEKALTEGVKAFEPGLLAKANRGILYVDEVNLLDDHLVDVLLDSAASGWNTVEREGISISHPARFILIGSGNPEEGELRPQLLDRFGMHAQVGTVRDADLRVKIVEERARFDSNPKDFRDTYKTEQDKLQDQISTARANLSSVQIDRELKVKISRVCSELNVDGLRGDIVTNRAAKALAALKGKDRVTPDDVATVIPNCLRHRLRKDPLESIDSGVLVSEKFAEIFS

B1: middle region of CHLH/ABAR (amino acid residues 347-1038) linked to the Gal4 DNA binding domain (domain or fragment, UniProt Q9FNB0 347-1038)
chain: ELEARGAKVVPIFAGGLDFSGPVEKYFVDPVSKQPIVNSAVSLTGFALVGGPARQDHPRAIEALKKLDVPYLVAVPLVFQTTEEWLNSTLGLHPIQVALQVALPELDGAMEPIVFAGRDPRTGKSHALHKRVEQLCIRAIRWGELKRKTKAEKKLAITVFSFPPDKGNVGTAAYLNVFASIFSVLRDLKRDGYNVEGLPENAETLIEEIIHDKEAQFSSPNLNVAYKMGVREYQDLTPYANALEENWGKPPGNLNSDGENLLVYGKAYGNVFIGVQPTFGYEGDPMRLLFSKSASPHHGFAAYYSYVEKIFKADAVLHFGTHGSLEFMPGKQVGMSDACFPDSLIGNIPNVYYYAANNPSEATIAKRRSYANTISYLTPPAENAGLYKGLKQLSELISSYQSLKDTGRGPQIVSSIISTAKQCNLDKDVDLPDEGLELSPKDRDSVVGKVYSKIMEIESRLLPCGLHVIGEPPSAMEAVATLVNIAALDRPEDEISALPSILAECVGREIEDVYRGSDKGILSDVELLKEITDASRGAVSAFVEKTTNSKGQVVDVSDKLTSLLGFGINEPWVEYLSNTKFYRANRDKLRTVFGFLGECLKLVVMDNELGSLMQALEGKYVEPGPGGDPIRNPKVLPTGKNIHALDPQAIPTTAAMASAKIVVERLVERQKLENEGKYPETIALVLWGTDNI
B2: C-terminal half of CHLH/ABAR (amino acid residues 692-1381) linked to the Gal4 DNA binding domain (domain or fragment, UniProt Q9FNB0 692-1381)
chain: GNIPNVYYYAANNPSEATIAKRRSYANTISYLTPPAENAGLYKGLKQLSELISSYQSLKDTGRGPQIVSSIISTAKQCNLDKDVDLPDEGLELSPKDRDSVVGKVYSKIMEIESRLLPCGLHVIGEPPSAMEAVATLVNIAALDRPEDEISALPSILAECVGREIEDVYRGSDKGILSDVELLKEITDASRGAVSAFVEKTTNSKGQVVDVSDKLTSLLGFGINEPWVEYLSNTKFYRANRDKLRTVFGFLGECLKLVVMDNELGSLMQALEGKYVEPGPGGDPIRNPKVLPTGKNIHALDPQAIPTTAAMASAKIVVERLVERQKLENEGKYPETIALVLWGTDNIKTYGESLGQVLWMIGVRPIADTFGRVNRVEPVSLEELGRPRIDVVVNCSGVFRDLFINQMNLLDRAIKMVAELDEPVEQNFVRKHALEQAEALGIDIREAATRVFSNASGSYSANISLAVENSSWNDEKQLQDMYLSRKSFAFDSDAPGAGMAEKKQVFEMALSTAEVTFQNLDSSEISLTDVSHYFDSDPTNLVQSLRKDKKKPSSYIADTTTANAQVRTLSETVRLDARTKLLNPKWYEGMMSSGYEGVREIEKRLSNTVGWSATSGQVDNWVYEEANSTFIQDEEMLNRLMNTNPNSFRKMLQTFLEANGRGYWDTSAENIEKLKELYSQVEDKIEGIDR
B3: N-terminal half of CHLH/ABAR (amino acid residues 1-691) linked to the Gal4 DNA binding domain (domain or fragment, UniProt Q9FNB0 1-691)
chain: MASLVYSPFTLSTSKAEHLSSLTNSTKHSFLRKKHRSTKPAKSFFKVKSAVSGNGLFTQTNPEVRRIVPIKRDNVPTVKIVYVVLEAQYQSSLSEAVQSLNKTSRFASYEVVGYLVEELRDKNTYNNFCEDLKDANIFIGSLIFVEELAIKVKDAVEKERDRMDAVLVFPSMPEVMRLNKLGSFSMSQLGQSKSPFFQLFKRKKQGSAGFADSMLKLVRTLPKVLKYLPSDKAQDARLYILSLQFWLGGSPDNLQNFVKMISGSYVPALKGVKIEYSDPVLFLDTGIWHPLAPTMYDDVKEYWNWYDTRRDTNDSLKRKDATVVGLVLQRSHIVTGDDSHYVAVIMELEARGAKVVPIFAGGLDFSGPVEKYFVDPVSKQPIVNSAVSLTGFALVGGPARQDHPRAIEALKKLDVPYLVAVPLVFQTTEEWLNSTLGLHPIQVALQVALPELDGAMEPIVFAGRDPRTGKSHALHKRVEQLCIRAIRWGELKRKTKAEKKLAITVFSFPPDKGNVGTAAYLNVFASIFSVLRDLKRDGYNVEGLPENAETLIEEIIHDKEAQFSSPNLNVAYKMGVREYQDLTPYANALEENWGKPPGNLNSDGENLLVYGKAYGNVFIGVQPTFGYEGDPMRLLFSKSASPHHGFAAYYSYVEKIFKADAVLHFGTHGSLEFMPGKQVGMSDACFPDSLI

molecular target: full length CHLD (D subunit of Mg-chelatase) linked to the Gal4 activation domain (Arabidopsis thaliana) (UniProt Q9SJE1); experiment: co-IP; total proteins of the same co-transformed yeast cells; IP with anti-HA serum (HA-tagged CHLI1 or CHLD) and protein A/G Plus-agarose at 4 °C overnight, blot with anti-MYC serum (MYC-tagged ABARs); preimmune serum as control

binding, binds:
B1
B2
B3

molecular target: T1, full length CHLI1 (I subunit of Mg-chelatase) linked to the Gal4 activation domain (Arabidopsis thaliana); experiment: as above

binding, binds:
B1
B2
B3
